Experimental data taken from US12569563B2, “Selective HDAC6 degraders and methods of use thereof” (DANA-FARBER CANCER INSTITUTE, INC., priority 2019, dated 2026).
Some entries share one result that the patent states for a list of compounds.

Experiments:
[1] = tested on: other identified HDAC proteins; test: Multiplexed TMT mass spectrometry proteomics in Kelly cells, other HDAC abundance; assay type: cell-based, human; settings: 1 μM, 5 hours
Method: (§1) Lysis buffer (8 M Urea, 50 mM NaCl, 50 mM 4-(2hydroxyethyl)-1-piperazineethanesulfonic acid (EPPS) pH 8.5, protease and phosphatase inhibitors from Roche®) were added to the cell pellets and homogenized by 20 passes through a 21 gauge (1.25 in. long) needle to achieve a cell lysate with a protein concentration between 1-4 mg mL^−1. A micro-BCA assay (Pierce™) was used to determine the final protein concentration in the cell lysate. 200 μg of protein for each sample were reduced and alkylated as described above.
(§2) Proteins were precipitated using methanol/chloroform. Four volumes of methanol were added to the cell lysate, followed by one volume of chloroform, and finally three volumes of water. The mixture was vortexed and centrifuged to separate the chloroform phase from the aqueous phase. The precipitated protein was washed with three volumes of methanol, centrifuged and the resulting washed precipitated protein was allowed to air dry. The precipitated protein was resuspended in 4 M Urea, 50 mM HEPES pH 7.4, followed by dilution to 1 M urea with the addition of 200 mM EPPS, pH 8. Proteins were first digested with LysC (1:50; enzyme:protein) for 12 hours at room temperature. The LysC digestion was diluted to 0.5 M Urea with 200 mM EPPS pH 8 followed by digestion with trypsin (1:50; enzyme:protein) for 6 hours at 37° C. Tandem mass tag (TMT) reagents (Thermo Fisher Scientific™) were dissolved in anhydrous acetonitrile (ACN) according to manufacturer's instructions.
(§3) Anhydrous ACN was added to each peptide sample to a final concentration of 30% v/v, and labeling was induced with the addition of TMT reagent to each sample at a ratio of 1:4 peptide:TMT label. The 10-plex labeling reactions were performed for 1.5 hours at room temperature and the reaction quenched by the addition of hydroxylamine to a final concentration of 0.3% for 15 minutes at room temperature. The sample channels were combined at a 1:1:1:1:1:1:1:1:1:1:1 ratio, desalted using Cis solid phase extraction cartridges (Waters) and analyzed by LC-MS for channel ratio comparison. Samples were then combined using the adjusted volumes determined in the channel ratio analysis and dried down in a speed vacuum. The combined sample was then resuspended in 1% formic acid, and acidified (pH 2-3) before being subjected to desalting with C18 SPE (Sep-Pak®, Waters). Samples were then offline fractionated into 96 fractions by high pH reverse-phase HPLC (Agilent® LC1260) through an aeris peptide xb-c18 column (Phenomenex®) with mobile phase A containing 5% acetonitrile and 10 mM NH4HCO3 in LC-MS grade H2O, and mobile phase B containing 90% acetonitrile and 10 mM NH4HCO3 in LC-MS grade H2O (both pH 8.0). The 96 resulting fractions were then pooled in a non-continuous manner into 24 fractions and these fractions were used for subsequent mass spectrometry analysis.
(§4) Data were collected using an Orbitrap Fusion™ Lumos™ mass spectrometer (Thermo Fisher Scientific™, San Jose, CA, USA) coupled with a Proxeon EASY-nLC™ 1200 LC pump (Thermo Fisher Scientific™). Peptides were separated on an EasySpray™ ES803 75 μm inner diameter microcapillary column (ThermoFisher Scientific™).
Each analysis used an MS3-based TMT method as described previously. The data were acquired using a mass range of m/z 340-1350, resolution 120,000, AGC target 1×10^6, maximum injection time 100 ms, dynamic exclusion of 120 seconds for the peptide measurements in the Orbitrap. […]

[2] = biological target: T1, HDAC6 (Homo sapiens, UniProt Q9UBN7); test: Multiplexed TMT mass spectrometry proteomics in Kelly cells, HDAC6 abundance; assay type: cell-based; parameters: endogenous in cells; host or cells: Kelly cells; settings: 1 μM; for change in cellular HDAC6 protein levels vs DMSO (heat map FIG. 3): 5 hours
T1 sequence (Q9UBN7 1-1215): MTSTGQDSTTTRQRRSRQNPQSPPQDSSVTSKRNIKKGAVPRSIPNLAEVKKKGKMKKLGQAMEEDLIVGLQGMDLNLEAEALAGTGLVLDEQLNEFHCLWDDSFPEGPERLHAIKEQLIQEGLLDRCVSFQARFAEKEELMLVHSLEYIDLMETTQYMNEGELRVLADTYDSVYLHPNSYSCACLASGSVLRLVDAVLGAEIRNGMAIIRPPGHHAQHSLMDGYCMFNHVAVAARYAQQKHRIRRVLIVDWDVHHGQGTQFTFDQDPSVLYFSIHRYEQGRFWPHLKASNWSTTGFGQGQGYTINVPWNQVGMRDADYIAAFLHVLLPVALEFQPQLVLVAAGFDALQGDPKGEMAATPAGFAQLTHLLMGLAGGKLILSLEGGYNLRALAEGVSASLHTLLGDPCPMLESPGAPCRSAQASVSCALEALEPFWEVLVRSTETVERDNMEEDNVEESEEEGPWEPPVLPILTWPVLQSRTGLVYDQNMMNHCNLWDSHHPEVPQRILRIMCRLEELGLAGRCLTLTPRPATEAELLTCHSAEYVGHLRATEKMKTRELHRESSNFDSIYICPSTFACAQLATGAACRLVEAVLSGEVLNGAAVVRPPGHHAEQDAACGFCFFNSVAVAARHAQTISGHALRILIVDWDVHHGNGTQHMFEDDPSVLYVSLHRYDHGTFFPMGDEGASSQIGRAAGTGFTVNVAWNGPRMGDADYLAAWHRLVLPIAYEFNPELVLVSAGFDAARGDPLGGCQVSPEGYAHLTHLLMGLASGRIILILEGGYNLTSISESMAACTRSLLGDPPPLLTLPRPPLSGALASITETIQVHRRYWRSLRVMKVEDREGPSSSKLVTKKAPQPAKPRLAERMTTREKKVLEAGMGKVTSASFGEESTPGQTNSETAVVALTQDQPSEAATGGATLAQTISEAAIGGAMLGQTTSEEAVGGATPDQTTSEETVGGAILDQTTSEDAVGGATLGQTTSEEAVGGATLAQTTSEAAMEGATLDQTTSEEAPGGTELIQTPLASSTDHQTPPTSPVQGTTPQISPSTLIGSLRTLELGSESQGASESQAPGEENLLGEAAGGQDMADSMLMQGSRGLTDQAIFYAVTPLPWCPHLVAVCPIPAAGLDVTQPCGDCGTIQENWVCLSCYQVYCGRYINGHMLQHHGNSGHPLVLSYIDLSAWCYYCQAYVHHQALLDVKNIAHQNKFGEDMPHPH
Method: as §1, §2, §3, §4
Each analysis used an MS3-based TMT method as described previously. The data were acquired using a mass range of m/z 340-1350, resolution 120,000, AGC target 1×10^6, maximum injection time 100 ms, dynamic exclusion of 120 seconds for the peptide measurements in the Orbitrap. Data dependent MS2 spectra were acquired in the ion trap with a normalized collision energy (NCE) set at 55%, AGC target set to 1.5×10^5 and a maximum injection time of 150 ms. MS3 scans were acquired in the Orbitrap with a HCD collision energy set to 55%, AGC target set to 1.5×10^5, maximum injection time of 150 ms, resolution at 50,000 and with a maximum synchronous precursor selection (SPS) precursors set to 10. […]

Row | SMILES | change in cellular protein levels of other identified HDAC proteins (heat map FIG. 3) [1] | change in HDAC6 protein levels vs DMSO (scatterplots FIG. 2) [2] | change in cellular HDAC6 protein levels vs DMSO (heat map FIG. 3) [2]
1 | CN(C(=O)CCCNc1cccc2c1C(=O)N(C1CCC(=O)NC1=O)C2=O)c1ccc(NC(=O)CCCCCCC(=O)NO)cc1 (centres unmarked) [Compound 1, N^1-(4-(4-((2-(2,6-dioxopiperidin-3-yl)-1,3-dioxoisoindolin-4-yl)amino)-N-methylbutanamido)phenyl)-N^8-hydroxyoctanediamide] | did not affect the cellular protein levels of the other identified HDAC proteins | significant reduction in HDAC6 protein levels | induced down-regulation of cellular HDAC6 protein levels
2 | CN(C(=O)CCCCCNc1cccc2c1C(=O)N(C1CCC(=O)NC1=O)C2=O)c1ccc(NC(=O)CCCCCCC(=O)NO)cc1 (centres unmarked) [Compound 2, N^1-(4-(6-((2-(2,6-dioxopiperidin-3-yl)-1,3-dioxoisoindolin-4-yl)amino)-N-methylhexanamido)phenyl)-N^8-hydroxyoctanediamide] | did not affect the cellular protein levels of the other identified HDAC proteins | significant reduction in HDAC6 protein levels | induced down-regulation of cellular HDAC6 protein levels
3 | CN(C(=O)CCCCCCCNc1cccc2c1C(=O)N(C1CCC(=O)NC1=O)C2=O)c1ccc(NC(=O)CCCCCCC(=O)NO)cc1 (centres unmarked) [Compound 3, N^1-(4-(8-((2-(2,6-dioxopiperidin-3-yl)-1,3-dioxoisoindolin-4-yl)amino)-N-methyloctanamido)phenyl)-N^8-hydroxyoctanediamide] | did not affect the cellular protein levels of the other identified HDAC proteins | significant reduction in HDAC6 protein levels | induced down-regulation of cellular HDAC6 protein levels
4 | CN(CCNc1cccc2c1C(=O)N(C1CCC(=O)NC1=O)C2=O)Cc1ccc(NC(=O)CCCCCCC(=O)NO)cc1 (centres unmarked) [Compound 4, N^1-(4-(((2-((2-(2,6-dioxopiperidin-3-yl)-1,3-dioxoisoindolin-4-yl)amino)ethyl)(methyl)amino)methyl)phenyl)-N-hydroxyoctanediamide] |  | significant reduction in HDAC6 protein levels | 
5 | CN(CCCCNc1cccc2c1C(=O)N(C1CCC(=O)NC1=O)C2=O)Cc1ccc(NC(=O)CCCCCCC(=O)NO)cc1 (centres unmarked) [Compound 5, N^1-(4-(((4-((2-(2,6-dioxopiperidin-3-yl)-1,3-dioxoisoindolin-4-yl)amino)butyl)(methyl)amino)methyl)phenyl)-N^8-hydroxyoctanediamide] |  | significant reduction in HDAC6 protein levels | 
6 | CN(C(=O)CCOCCNc1cccc2c1C(=O)N(C1CCC(=O)NC1=O)C2=O)c1ccc(NC(=O)CCCCCCC(=O)NO)cc1 (centres unmarked) [Compound 7, N^1-(4-(3-(2-((2-(2,6-dioxopiperidin-3-yl)-1,3-dioxoisoindolin-4-yl)amino)ethoxy)-N-methylpropanamido)phenyl)-N^8-hydroxyoctanediamide] | did not affect the cellular protein levels of the other identified HDAC proteins | significant reduction in HDAC6 protein levels | induced down-regulation of cellular HDAC6 protein levels
7 | CN(C(=O)CCOCCOCCNc1cccc2c1C(=O)N(C1CCC(=O)NC1=O)C2=O)c1ccc(NC(=O)CCCCCCC(=O)NO)cc1 (centres unmarked) [Compound 8, N^1-(4-(3-(2-(2-((2-(2,6-dioxopiperidin-3-yl)-1,3-dioxoisoindolin-4-yl)amino)ethoxy)ethoxy)-N^8-methylpropanamido)phenyl)-NP-hydroxyoctanediamide] | did not affect the cellular protein levels of the other identified HDAC proteins | significant reduction in HDAC6 protein levels | induced down-regulation of cellular HDAC6 protein levels
